Assay in all cases: co-IP; endogenous proteins; BMDCs untreated or treated with LPS (100 ng/ml), HEK293T cells treated with TNFα (20 ng/ml) for the indicated times; lysis in 50 mM Tris pH 7.5, 1 mM EGTA, 1 mM EDTA, 1% Triton X-100, 150 mM NaCl; Protein G-agarose and antibodies 4 h at 4°C
Assay [1] addresses T1, IKKβ, endogenous in mouse BMDCs (mouse (endogenous in BMDCs)) (UniProt O88351).
T1 sequence: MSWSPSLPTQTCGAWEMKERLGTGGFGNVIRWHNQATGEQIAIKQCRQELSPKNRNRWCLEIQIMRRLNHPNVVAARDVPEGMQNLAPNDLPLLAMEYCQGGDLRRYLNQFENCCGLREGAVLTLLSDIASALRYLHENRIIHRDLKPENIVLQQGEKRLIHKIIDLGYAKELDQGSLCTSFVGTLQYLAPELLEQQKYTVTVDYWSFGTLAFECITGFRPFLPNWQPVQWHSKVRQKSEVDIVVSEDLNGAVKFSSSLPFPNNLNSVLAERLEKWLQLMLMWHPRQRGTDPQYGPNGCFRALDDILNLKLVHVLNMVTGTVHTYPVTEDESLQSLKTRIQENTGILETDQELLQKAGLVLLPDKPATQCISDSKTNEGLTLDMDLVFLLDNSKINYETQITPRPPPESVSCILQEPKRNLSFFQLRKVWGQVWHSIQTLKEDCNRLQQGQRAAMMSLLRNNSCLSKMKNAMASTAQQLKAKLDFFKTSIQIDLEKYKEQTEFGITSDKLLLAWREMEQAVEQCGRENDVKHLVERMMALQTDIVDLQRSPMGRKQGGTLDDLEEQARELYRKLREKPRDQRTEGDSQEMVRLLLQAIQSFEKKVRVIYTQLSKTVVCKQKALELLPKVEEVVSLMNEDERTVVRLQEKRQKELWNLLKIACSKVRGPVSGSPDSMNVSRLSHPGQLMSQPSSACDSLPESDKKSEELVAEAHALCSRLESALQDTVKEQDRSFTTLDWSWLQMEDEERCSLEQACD

Protein sequences, listed by entry. Tags and fused reporters are not part of them.
UniProt Q04207: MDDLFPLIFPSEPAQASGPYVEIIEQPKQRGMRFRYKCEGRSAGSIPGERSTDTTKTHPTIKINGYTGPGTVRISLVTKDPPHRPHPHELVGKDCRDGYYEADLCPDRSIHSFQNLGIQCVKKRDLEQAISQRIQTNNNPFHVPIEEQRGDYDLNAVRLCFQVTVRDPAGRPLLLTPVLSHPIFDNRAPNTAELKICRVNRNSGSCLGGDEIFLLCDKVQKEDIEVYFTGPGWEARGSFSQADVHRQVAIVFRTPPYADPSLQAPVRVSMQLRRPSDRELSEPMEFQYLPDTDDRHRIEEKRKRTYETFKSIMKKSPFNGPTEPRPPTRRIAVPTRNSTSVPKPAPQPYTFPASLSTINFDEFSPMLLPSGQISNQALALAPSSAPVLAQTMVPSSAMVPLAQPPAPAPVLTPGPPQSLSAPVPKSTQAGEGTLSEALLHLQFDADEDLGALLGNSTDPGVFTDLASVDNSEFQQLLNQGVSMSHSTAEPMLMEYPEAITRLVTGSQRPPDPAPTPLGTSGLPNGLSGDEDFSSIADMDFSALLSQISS
UniProt Q9Z1E3: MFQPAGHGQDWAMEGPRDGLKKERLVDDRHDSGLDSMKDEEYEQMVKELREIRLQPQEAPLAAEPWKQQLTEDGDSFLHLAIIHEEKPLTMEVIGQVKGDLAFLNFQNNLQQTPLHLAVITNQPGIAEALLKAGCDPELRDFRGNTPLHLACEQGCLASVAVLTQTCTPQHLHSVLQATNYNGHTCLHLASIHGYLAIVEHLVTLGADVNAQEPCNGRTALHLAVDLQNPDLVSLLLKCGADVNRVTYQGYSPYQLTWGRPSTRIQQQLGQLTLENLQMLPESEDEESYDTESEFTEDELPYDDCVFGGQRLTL
UniProt Q6NZM9: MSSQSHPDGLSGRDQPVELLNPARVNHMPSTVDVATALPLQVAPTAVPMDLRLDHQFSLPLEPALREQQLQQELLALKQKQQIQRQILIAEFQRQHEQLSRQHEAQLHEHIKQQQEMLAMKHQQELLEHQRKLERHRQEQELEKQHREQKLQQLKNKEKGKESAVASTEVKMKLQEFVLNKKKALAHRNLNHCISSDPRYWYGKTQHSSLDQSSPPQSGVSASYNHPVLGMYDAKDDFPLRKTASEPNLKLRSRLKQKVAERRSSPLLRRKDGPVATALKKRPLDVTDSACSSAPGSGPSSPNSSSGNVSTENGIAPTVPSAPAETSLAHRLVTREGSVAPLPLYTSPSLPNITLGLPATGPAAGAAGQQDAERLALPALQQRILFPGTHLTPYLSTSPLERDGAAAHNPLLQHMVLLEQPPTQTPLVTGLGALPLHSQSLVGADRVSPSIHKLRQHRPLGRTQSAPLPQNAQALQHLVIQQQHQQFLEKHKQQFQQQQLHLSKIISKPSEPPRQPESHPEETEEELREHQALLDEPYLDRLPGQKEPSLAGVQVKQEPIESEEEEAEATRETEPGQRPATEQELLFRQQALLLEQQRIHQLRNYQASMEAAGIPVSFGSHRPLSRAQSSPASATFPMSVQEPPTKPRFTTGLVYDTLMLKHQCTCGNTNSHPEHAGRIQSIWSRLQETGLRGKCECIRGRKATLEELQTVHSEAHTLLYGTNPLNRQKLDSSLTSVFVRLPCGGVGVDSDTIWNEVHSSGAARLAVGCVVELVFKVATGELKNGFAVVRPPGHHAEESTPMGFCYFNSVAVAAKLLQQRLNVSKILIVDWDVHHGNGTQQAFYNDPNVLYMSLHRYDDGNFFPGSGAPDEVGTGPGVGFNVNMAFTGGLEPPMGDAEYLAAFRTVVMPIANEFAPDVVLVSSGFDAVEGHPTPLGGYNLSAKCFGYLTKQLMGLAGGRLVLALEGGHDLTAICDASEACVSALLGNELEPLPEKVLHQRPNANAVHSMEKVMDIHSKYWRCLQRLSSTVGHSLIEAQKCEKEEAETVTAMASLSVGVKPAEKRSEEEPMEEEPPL

The target of assay [2] is p65 (RelA), endogenous in mouse BMDCs (mouse (endogenous in BMDCs)) (UniProt Q04207).
Assay [3] addresses IκBα, endogenous in mouse BMDCs (mouse (endogenous in BMDCs)) (UniProt Q9Z1E3).

No constants are given. Whether binding was seen depends on the method and setting. Binding seen in cells or lysates may run through a third protein. Some entries that bind do so weakly or less than the wild type.

Turning to “histone deacetylase 4 (HDAC4), endogenous in mouse BMDCs (from UniProt Q6NZM9 1-1076)”, the binding entry in assay [1], in assay [2] and in assay [3] was “binds” in each case.
Consider “p65 (RelA), endogenous in mouse BMDCs (from UniProt Q04207 1-549)”, for which, in assay [3], the binding entry is given as “binds”.

Values taken from publication PMC7948076.
